Measurements published in article PMC8636641.

Columns and labels:
Assay in all cases: affinity purification with mass spectrometry; V5-tagged rat TAOK2 variants (1-993) expressed in HEK293T cells, cells mock-treated or transfected with 5 ug/ml poly(I:C) for 4 h; lysate in TAP lysis buffer (50 mM Tris-HCl pH 7.5, 100 mM NaCl, 1.5 mM MgCl2, 0.2% NP-40, 5% glycerol, Sm DNase); anti-V5-agarose, 3 h at 4 C; LC-MS/MS, enrichment against combined control baits EGFP and PGAM5
[1] = target: T1, C-terminal transmembrane domain deleted V5-tagged wild-type rat TAOK2 (amino acids 1-993) (rat) (UniProt Q9JLS3)
T1 sequence: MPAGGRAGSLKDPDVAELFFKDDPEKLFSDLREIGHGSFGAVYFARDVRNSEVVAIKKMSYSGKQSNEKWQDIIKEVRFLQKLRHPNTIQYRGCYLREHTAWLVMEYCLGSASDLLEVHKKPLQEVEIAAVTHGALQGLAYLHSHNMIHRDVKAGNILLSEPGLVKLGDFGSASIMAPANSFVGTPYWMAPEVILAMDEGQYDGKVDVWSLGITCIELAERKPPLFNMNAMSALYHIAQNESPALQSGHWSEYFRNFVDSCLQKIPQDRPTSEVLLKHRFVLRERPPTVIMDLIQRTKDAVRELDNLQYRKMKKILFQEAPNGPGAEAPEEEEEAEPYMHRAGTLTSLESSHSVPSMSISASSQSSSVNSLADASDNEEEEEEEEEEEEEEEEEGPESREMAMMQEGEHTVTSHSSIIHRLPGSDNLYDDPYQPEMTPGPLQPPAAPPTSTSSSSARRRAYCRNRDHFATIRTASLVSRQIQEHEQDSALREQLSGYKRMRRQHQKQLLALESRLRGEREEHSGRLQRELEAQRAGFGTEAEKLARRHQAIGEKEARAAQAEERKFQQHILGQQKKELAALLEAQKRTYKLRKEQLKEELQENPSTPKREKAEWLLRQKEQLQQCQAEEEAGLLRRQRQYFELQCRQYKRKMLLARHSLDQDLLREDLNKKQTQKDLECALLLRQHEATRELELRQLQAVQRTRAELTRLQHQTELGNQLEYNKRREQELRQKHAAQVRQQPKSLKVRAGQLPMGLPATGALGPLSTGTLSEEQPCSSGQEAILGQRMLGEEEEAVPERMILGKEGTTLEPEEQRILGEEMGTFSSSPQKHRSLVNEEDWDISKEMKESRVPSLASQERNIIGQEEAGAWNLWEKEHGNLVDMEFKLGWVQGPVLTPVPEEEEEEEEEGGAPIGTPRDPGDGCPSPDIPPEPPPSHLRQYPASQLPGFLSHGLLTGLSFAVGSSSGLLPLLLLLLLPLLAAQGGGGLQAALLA

[2] = target: T2, rat TAOK2 D151A (amino acids 1-993, V5-tagged; mutation in the active site of the kinase domain) (rat) (UniProt Q9JLS3)
T2 sequence: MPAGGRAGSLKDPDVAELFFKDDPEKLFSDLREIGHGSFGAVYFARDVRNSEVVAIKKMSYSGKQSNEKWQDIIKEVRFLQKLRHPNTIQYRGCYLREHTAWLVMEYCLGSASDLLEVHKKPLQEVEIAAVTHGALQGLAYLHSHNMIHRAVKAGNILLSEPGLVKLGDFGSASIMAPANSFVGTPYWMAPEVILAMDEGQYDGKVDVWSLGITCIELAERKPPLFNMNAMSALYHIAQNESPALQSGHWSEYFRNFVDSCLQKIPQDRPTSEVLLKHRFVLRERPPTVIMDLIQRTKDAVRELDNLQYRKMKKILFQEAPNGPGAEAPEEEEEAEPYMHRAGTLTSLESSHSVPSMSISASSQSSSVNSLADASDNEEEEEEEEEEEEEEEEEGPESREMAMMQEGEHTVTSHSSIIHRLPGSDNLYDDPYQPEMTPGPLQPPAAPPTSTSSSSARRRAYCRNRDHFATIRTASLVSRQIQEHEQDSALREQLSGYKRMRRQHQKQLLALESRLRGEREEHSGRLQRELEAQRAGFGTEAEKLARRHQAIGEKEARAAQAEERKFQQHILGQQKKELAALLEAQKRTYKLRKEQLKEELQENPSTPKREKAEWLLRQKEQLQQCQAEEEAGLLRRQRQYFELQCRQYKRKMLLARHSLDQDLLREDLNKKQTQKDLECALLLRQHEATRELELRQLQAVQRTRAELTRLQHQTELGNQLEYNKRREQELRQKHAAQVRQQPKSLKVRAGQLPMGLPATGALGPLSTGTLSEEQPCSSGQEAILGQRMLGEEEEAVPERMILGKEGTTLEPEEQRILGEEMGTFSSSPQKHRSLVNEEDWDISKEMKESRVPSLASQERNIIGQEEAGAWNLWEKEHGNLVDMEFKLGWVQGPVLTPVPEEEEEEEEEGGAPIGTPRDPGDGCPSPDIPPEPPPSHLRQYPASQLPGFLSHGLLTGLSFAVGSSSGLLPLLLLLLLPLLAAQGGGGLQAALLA

[3] = target: T3, rat TAOK2-R702C (amino acids 1-993, V5-tagged; corresponding to human R700C) (rat) (UniProt Q9JLS3)
T3 sequence: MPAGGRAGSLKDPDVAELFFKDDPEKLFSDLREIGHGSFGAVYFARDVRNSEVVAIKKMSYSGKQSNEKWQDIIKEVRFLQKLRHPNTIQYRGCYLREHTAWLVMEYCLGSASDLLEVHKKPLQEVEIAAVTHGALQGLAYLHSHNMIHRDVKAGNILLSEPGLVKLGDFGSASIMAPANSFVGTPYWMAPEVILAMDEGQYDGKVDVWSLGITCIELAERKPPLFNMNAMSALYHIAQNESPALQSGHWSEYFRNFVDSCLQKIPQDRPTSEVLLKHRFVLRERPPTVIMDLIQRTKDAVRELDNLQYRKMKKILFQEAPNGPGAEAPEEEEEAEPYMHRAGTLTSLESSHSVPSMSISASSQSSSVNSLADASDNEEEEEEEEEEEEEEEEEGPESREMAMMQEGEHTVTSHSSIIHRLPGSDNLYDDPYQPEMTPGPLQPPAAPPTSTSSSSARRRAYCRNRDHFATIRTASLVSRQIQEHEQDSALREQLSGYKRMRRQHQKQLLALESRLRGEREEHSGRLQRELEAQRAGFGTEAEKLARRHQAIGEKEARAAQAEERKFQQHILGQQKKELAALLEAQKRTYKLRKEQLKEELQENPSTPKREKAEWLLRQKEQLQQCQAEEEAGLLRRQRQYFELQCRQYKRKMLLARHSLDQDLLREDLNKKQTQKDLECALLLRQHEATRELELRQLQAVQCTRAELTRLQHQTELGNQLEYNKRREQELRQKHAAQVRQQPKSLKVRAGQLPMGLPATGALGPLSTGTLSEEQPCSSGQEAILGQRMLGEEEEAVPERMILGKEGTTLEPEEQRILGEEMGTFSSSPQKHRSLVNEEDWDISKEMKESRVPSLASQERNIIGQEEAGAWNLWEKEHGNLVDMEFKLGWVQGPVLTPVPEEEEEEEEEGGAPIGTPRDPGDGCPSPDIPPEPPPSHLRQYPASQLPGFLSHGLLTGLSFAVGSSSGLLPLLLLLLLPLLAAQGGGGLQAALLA

Measured: binding

B1: TRIM4 (protein, UniProt Q9C037 1-500)
chain: MEAEDIQEELTCPICLDYFQDPVSIECGHNFCRGCLHRNWAPGGGPFPCPECRHPSAPAALRPNWALARLTEKTQRRRLGPVPPGLCGRHWEPLRLFCEDDQRPVCLVCRESQEHQTHAMAPIDEAFESYRTGNFDIHVDEWKRRLIRLLLYHFKQEEKLLKSQRNLVAKMKKVMHLQDVEVKNATQWKDKIKSQRMRISTEFSKLHNFLVEEEDLFLQRLNKEEEETKKKLNENTLKLNQTIASLKKLILEVGEKSQAPTLELLQNPKEVLTRSEIQDVNYSLEAVKVKTVCQIPLMKEMLKRFQVAVNLAEDTAHPKLVFSQEGRYVKNTASASSWPVFSSAWNYFAGWRNPQKTAFVERFQHLPCVLGKNVFTSGKHYWEVESRDSLEVAVGVCREDVMGITDRSKMSPDVGIWAIYWSAAGYWPLIGFPGTPTQQEPALHRVGVYLDRGTGNVSFYSAVDGVHLHTFSCSSVSRLRPFFWLSPLASLVIPPVTDRK
binds: all assays above

These are yes or no findings as the source states them, for the method shown. Binding seen in cells or lysates may run through a third protein. Here binding means that the protein was enriched with, or labelled near, the bait; the list need not be complete. Where a sequence is shown, tags or fusion partners need not be part of it.
